Measured values published in paper PMC11589570, “Critical assessment of LC3/GABARAP ligands used for degrader development and ligandability of LC3/GABARAP binding pockets” (Nature Communications, 2024).
Where “and” joins values, the source holds several entries; their conditions need not be identical. Identical values can stand only once. This continues a long series; more values of the same kind are listed elsewhere.

Test system: U2OS cells
Assay: Cell growth assay (IncuCyte confluence over 72 h)
Assay type: cell-based
Set-up: key: % of well area covered by cells (confluence)
Details: listed as 8F20
Procedure, shortened: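 U2OS cells were grown in DMEM with 10% FBS for 24 h before treatment. Confluence was then tracked by IncuCyte phase imaging over 72 h and expressed as % of well area covered by cells. Each point is the average of three wells.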

Structure (SMILES): Cc1ccc(C(=O)N(CCCN)[C@@H](c2nc3cc(Cl)ccc3c(=O)n2Cc2ccccc2)C(C)C)cc1 [compound 3, (R)-N-(3-aminopropyl)-N-(1-(3-benzyl-7-chloro-4-oxo-3,4-dihydroquinazolin-2-yl)−2-methylpropyl)−4-methylbenzamide]
- U2OS cell growth (1 uM, time 52 h): 47.0716 and 49.5984 and 42.8553
- U2OS cell growth (1 uM, time 54 h): 44.609 and 41.7573 and 40.696
- U2OS cell growth (1 uM, time 56 h): 46.7786 and 49.5622 and 42.8728
- U2OS cell growth (1 uM, time 58 h): 46.5611 and 53.9752 and 42.1432
- U2OS cell growth (1 uM, time 60 h): 60.4507 and 54.7817 and 48.5604
- U2OS cell growth (1 uM, time 62 h): 59.1943 and 54.8864 and 50.1985
- U2OS cell growth (1 uM, time 64 h): 53.4434 and 54.5783 and 47.7028
- U2OS cell growth (1 uM, time 66 h): 52.0095 and 51.5108 and 45.6596
- U2OS cell growth (1 uM, time 68 h): 52.8953 and 56.7452 and 45.2781
- U2OS cell growth (1 uM, time 70 h): 53.803 and 53.7332 and 43.5461
- U2OS cell growth (1 uM, time 72 h): 51.4215 and 55.7661 and 47.397
- U2OS cell growth (3 uM, time 0 h): 34.2024 and 36.376 and 38.6668
- U2OS cell growth (3 uM, time 2 h): 38.3977 and 38.2102 and 40.6895
- U2OS cell growth (3 uM, time 4 h): 38.6509 and 39.2439 and 41.6964
- U2OS cell growth (3 uM, time 6 h): 37.5734 and 35.0944 and 35.8046
- U2OS cell growth (3 uM, time 8 h): 35.0629 and 34.0655 and 35.0431
- U2OS cell growth (3 uM, time 10 h): 36.5785 and 33.9226 and 38.3971
- U2OS cell growth (3 uM, time 12 h): 34.8854 and 31.3793 and 37.0691
- U2OS cell growth (3 uM, time 14 h): 34.2707 and 28.7445 and 31.9652
- U2OS cell growth (3 uM, time 16 h): 34.7729 and 29.5647 and 34.6836
- U2OS cell growth (3 uM, time 18 h): 33.132 and 27.5982 and 31.2012
- U2OS cell growth (3 uM, time 20 h): 30.6768 and 25.7267 and 30.4785
- U2OS cell growth (3 uM, time 22 h): 29.8144 and 24.3692 and 27.4449
- U2OS cell growth (3 uM, time 24 h): 27.9858 and 25.6417 and 27.3952
- U2OS cell growth (3 uM, time 26 h): 29.2786 and 25.7892 and 28.9016
- U2OS cell growth (3 uM, time 28 h): 27.6137 and 24.9874 and 26.9167
- U2OS cell growth (3 uM, time 30 h): 26.6111 and 25.3493 and 27.4407
- U2OS cell growth (3 uM, time 32 h): 26.9503 and 25.9594 and 27.7129
- U2OS cell growth (3 uM, time 48 h): 25.4708 and 25.8851 and 28.3176
- U2OS cell growth (3 uM, time 50 h): 25.1293 and 26.4095 and 27.0127
- U2OS cell growth (3 uM, time 52 h): 24.9031 and 27.2246 and 29.1456
- U2OS cell growth (3 uM, time 54 h): 24.6365 and 24.6482 and 28.431
- U2OS cell growth (3 uM, time 56 h): 25.9831 and 26.8626 and 28.8581
- U2OS cell growth (3 uM, time 58 h): 25.7496 and 28.2533 and 28.4753
- U2OS cell growth (3 uM, time 60 h): 26.8396 and 28.9234 and 32.5852
- U2OS cell growth (3 uM, time 62 h): 25.8993 and 27.8649 and 31.83
- U2OS cell growth (3 uM, time 64 h): 25.586 and 26.5192 and 30.5813
- U2OS cell growth (3 uM, time 66 h): 25.5573 and 26.177 and 29.1451
- U2OS cell growth (3 uM, time 68 h): 26.9679 and 26.9212 and 30.2676
- U2OS cell growth (3 uM, time 70 h): 24.8358 and 24.3369 and 27.5293
- U2OS cell growth (3 uM, time 72 h): 25.4806 and 25.8489 and 30.1657
- U2OS cell growth (5 uM, time 0 h): 33.2815 and 25.4553 and 36.825
- U2OS cell growth (5 uM, time 2 h): 37.3942 and 31.6173 and 43.0793
- U2OS cell growth (5 uM, time 4 h): 31.2077 and 34.5693 and 36.1758
- U2OS cell growth (5 uM, time 6 h): 32.1786 and 32.8409 and 39.7841
- U2OS cell growth (5 uM, time 8 h): 29.5284 and 30.9286 and 36.8404
- U2OS cell growth (5 uM, time 10 h): 30.6585 and 30.0434 and 38.1931
- U2OS cell growth (5 uM, time 12 h): 30.2785 and 28.309 and 36.0921
- U2OS cell growth (5 uM, time 14 h): 29.4853 and 26.7812 and 33.8046
- U2OS cell growth (5 uM, time 16 h): 35.7377 and 26.5203 and 37.112
- U2OS cell growth (5 uM, time 18 h): 31.7384 and 24.4245 and 33.7687
- U2OS cell growth (5 uM, time 20 h): 25.8039 and 22.0617 and 30.6892
- U2OS cell growth (5 uM, time 22 h): 30.2127 and 21.4229 and 33.5882
- U2OS cell growth (5 uM, time 24 h): 28.8051 and 21.8036 and 29.3497
- U2OS cell growth (5 uM, time 26 h): 26.8601 and 20.9796 and 30.9925
- U2OS cell growth (5 uM, time 28 h): 32.6092 and 19.9632 and 33.1688
- U2OS cell growth (5 uM, time 30 h): 31.5686 and 20.1756 and 32.9355
- U2OS cell growth (5 uM, time 32 h): 33.1875 and 20.0173 and 35.1531
- U2OS cell growth (5 uM, time 48 h): 33.8432 and 24.5537 and 39.9609
- U2OS cell growth (5 uM, time 50 h): 32.2623 and 25.9153 and 34.4569
- U2OS cell growth (5 uM, time 52 h): 38.407 and 23.8043 and 39.8857
- U2OS cell growth (5 uM, time 54 h): 32.7545 and 23.1111 and 34.063
- U2OS cell growth (5 uM, time 56 h): 38.9851 and 24.1727 and 36.6069
- U2OS cell growth (5 uM, time 58 h): 40.8215 and 24.3142 and 36.269
- U2OS cell growth (5 uM, time 60 h): 45.4242 and 27.4359 and 48.0619
- U2OS cell growth (5 uM, time 62 h): 41.7021 and 26.6512 and 34.1758
- U2OS cell growth (5 uM, time 64 h): 35.5781 and 28.1251 and 35.0707
- U2OS cell growth (5 uM, time 66 h): 43.0487 and 25.4063 and 42.4088
- U2OS cell growth (5 uM, time 68 h): 36.8482 and 25.0895 and 34.995
- U2OS cell growth (5 uM, time 70 h): 46.2674 and 29.0868 and 48.7641
- U2OS cell growth (5 uM, time 72 h): 38.4782 and 25.8801 and 35.932
- U2OS cell growth (10 uM, time 0 h): 36.6888 and 25.9488 and 39.412
- U2OS cell growth (10 uM, time 2 h): 32.7801 and 22.005 and 32.135
- U2OS cell growth (10 uM, time 4 h): 26.345 and 17.8523 and 31.3415
- U2OS cell growth (10 uM, time 6 h): 24.7576 and 14.7737 and 25.8723
- U2OS cell growth (10 uM, time 8 h): 24.5321 and 14.5062 and 23.0218
- U2OS cell growth (10 uM, time 10 h): 29.1339 and 16.0642 and 25.8713
- U2OS cell growth (10 uM, time 12 h): 27.4568 and 15.8316 and 28.3309
- U2OS cell growth (10 uM, time 16 h): 27.3301 and 15.0503 and 28.5195
- U2OS cell growth (10 uM, time 20 h): 31.676 and 15.9606 and 29.2402
